# Reference: PubChem BioAssay AID540276 (National Center for Advancing Translational Sciences (NCATS), 2011)
# Out of some 300,000 compounds screened, about 5,400 (1.8%) were called active. This list was built around the results that the source calls inconclusive (neither active nor inactive); the mix of calls is not that of the screen. Calls come from the whole dose curve; tested in HEK293 cells. Where the call is inconclusive, the potency comes from a doubtful curve fit.
# Test: qHTS for inhibitors of binding or entry into cells for Marburg Virus
# Conditions: Marburg virus pseudotyped entry inhibition, cell reporter; activity change, negative = inhibition: at 37.8 µM (top of the series) unless noted
# % is set by controls: 0 for no effect and ±100 for the full control effect; potency is the fitted concentration of half-maximal effect.
Compound,Potency,"activity change, negative = inhibition"
CCOC(=O)CSc1nnc(-c2ccc(NS(=O)(=O)c3ccc(C)cc3)cc2)o1,"inconclusive: 1.78 µM [activator, full curve, poor fit]",–
CN1CCN(S(=O)(=O)c2ccc(NC(=O)c3ccc([N+](=O)[O-])cc3)cc2)CC1,"inconclusive: 35.5 µM [inhibitor, single point]",–
CNC(=O)CCc1nc(-c2ccc(C(C)(C)C)cc2)no1,active: 0.891 µM,–
CC(C)(C)C(=O)OC/C(N)=N/OC(=O)c1ccccc1,"inconclusive: 2.51 µM [activator, single point]",–
CC(=O)N1c2ccc(S(=O)(=O)NCCC(=O)Nc3ccc(C)c(F)c3)cc2CC1C (centres undefined),"inconclusive: 35.5 µM [inhibitor, single point]",–
COc1ccc(CNC(=O)CN(C)S(=O)(=O)c2ccc3nc(C)sc3c2)cc1,inactive,–
CC(C#N)Sc1ccc(S(=O)(=O)N2CCCC2)cn1 (centres undefined),inactive,–
Cc1ccc(C)c(NCc2ccccc2CO)c1,inactive,–
COc1cccc(OCCNC(=O)c2cc(OC)c(OC)c(OC)c2)c1,"inconclusive: 11.2 µM [inhibitor, single point]",–
Cc1cnc(C(=O)OCC(=O)NCCc2ccccc2)cn1,"inconclusive: 32.6 µM [activator, single point]",–
CC(=O)Nc1ccc(Nc2cc(C)nc3c(-c4ccccc4)cnn23)cc1,"inconclusive: 8.91 µM [inhibitor, partial curve, poor fit]",–
CN(C)CCCC1Sc2ccccc2Sc2ccccc21 (centres undefined),"inconclusive: 35.5 µM [inhibitor, single point]",–
CCC(=O)c1ccc(/C=C/c2nc3ccccc3n2C)o1,"inconclusive: 3.98 µM [inhibitor, partial curve, poor fit]",–
COc1cccc2sc(N(CCN(C)C)C(=O)c3ccc(S(=O)(=O)N4CCCC4)cc3)nc12,inactive,–
c1ccc(-c2ccc(C3=Nn4c(Cn5nnc6ccccc65)nnc4SC3)cc2)cc1,"inconclusive: 35.5 µM [inhibitor, single point]",–
CCN(CC(=O)Nc1ccc2c(c1)OCCO2)CC(=O)Nc1ccc2c(c1)OCO2,inactive,–
COc1cc2[nH]c(=S)n(Cc3ccc(C)o3)c(=O)c2cc1OC,inactive,–
CCOC(=O)c1cc2c(=Cc3ccc(N(C)C)cc3)c3ccccc3n2[n+]1C,"inconclusive: 3.98 µM [inhibitor, partial curve, poor fit]",–
Cc1ccc(C(=O)N2CC3(C(C)C)CN(C(=O)c4ccc(C)cc4)CC(C(C)C)(C2)C3=O)cc1,inactive,–
CN(C)CC/C=C1\c2ccccc2Sc2ccc(Cl)cc21,"inconclusive: 9.2 µM [inhibitor, partial curve, poor fit]",–
CC(C)(C)n1nnnc1C(c1cccnc1)N1CCN(C(=O)c2ccco2)CC1 (centres undefined),inactive,–
COc1cc(/C=N/NC(=S)Nc2cccc(Cl)c2C)ccc1OCC(=O)N1CC(C)OC(C)C1 (centres undefined),"inconclusive: 25.1 µM [inhibitor, single point]",–
COc1ccc(C(CNC(=S)NCc2ccccc2)N2CCCC2)cc1 (centres undefined),"inconclusive: 25.1 µM [inhibitor, single point]",–

# Some of these compounds in order of molecular weight, ascending.
Compound,Potency,"activity change, negative = inhibition"
Cc1ccc(C)c(NCc2ccccc2CO)c1,inactive,–
CC(=O)N1c2ccc(S(=O)(=O)NCCC(=O)Nc3ccc(C)c(F)c3)cc2CC1C (centres undefined),"inconclusive: 35.5 µM [inhibitor, single point]",–
Cc1ccc(C(=O)N2CC3(C(C)C)CN(C(=O)c4ccc(C)cc4)CC(C(C)C)(C2)C3=O)cc1,inactive,–
COc1cccc2sc(N(CCN(C)C)C(=O)c3ccc(S(=O)(=O)N4CCCC4)cc3)nc12,inactive,–

# Whole records as entered above. Order of values: Potency	activity change, negative = inhibition
# COc1ccc(C(CNC(=S)NCc2ccccc2)N2CCCC2)cc1 (centres undefined) is listed with inconclusive: 25.1 µM [inhibitor, single point]	–
# COc1ccc(CNC(=O)CN(C)S(=O)(=O)c2ccc3nc(C)sc3c2)cc1 is listed with inactive	–

# (more compounds)

Compound,Potency,"activity change, negative = inhibition"
COC(=O)C1=CN(c2ccc(F)cc2)C=C(C(=O)OC)C1c1cccc([N+](=O)[O-])c1,"inconclusive: 22.4 µM [inhibitor, single point]",–
CCN(CC)c1cc(C)c2cc(NC(=O)/C=C/c3cc(OC)c(OC)c(OC)c3)ccc2n1,"inconclusive: 15.8 µM [inhibitor, partial curve, poor fit]",–
c1ccc([C@H]2CN3CCSC3=N2)cc1,"inconclusive: 0.562 µM [inhibitor, full curve, poor fit]",–
COc1cc(NC(=O)C2=CC(c3ccc(F)cc3)=NS(=O)(=O)N2C)cc(OC)c1OC,inactive,–
O=C(Cn1nnnc1-c1ccccc1F)Nc1ccc(OC(F)(F)F)cc1,inactive,–
COc1cccc(-c2nn(-c3ccccc3)cc2C(=O)Nc2nccs2)c1,"inconclusive: 35.5 µM [inhibitor, single point]",–
COc1cc(C(=O)NC2=NCCS2)cc(OC)c1OC,–,inconclusive: 35.1% [activator] [at 46.1 µM]
COc1cc(OC)c(NC(=O)CCCNC(=O)Cn2cnc3sc(C)c(C)c3c2=O)cc1Cl,"inconclusive: 0.501 µM [inhibitor, full curve, poor fit]",–
CCC(=O)OCOc1ccc(/C=C2/CCC(CN(C)C)C2=O)cc1 (centres undefined),"inconclusive: 12.6 µM [inhibitor, partial curve, poor fit]",–
Cc1cc(C)nc(NC(=O)/C=C/c2ccc3c(c2)OCO3)c1,"inconclusive: 7.08 µM [inhibitor, partial curve, poor fit]",–
COC(=O)N[C@H](C(C(=O)OC)=C(C)NCc1ccccc1)c1ccccc1,inconclusive: 0.0006 µM [inhibitor],–
Fc1ccc(-c2csc(NC3=NCCC3)n2)cc1,inactive,–
CC1(C)C(=O)OC(C(=O)c2ccc(C(C)(C)C)cc2)C(C)(C)C1=O (centres undefined),"inconclusive: 35.5 µM [activator, single point]",–
Cc1ccc2nc(SCC(=O)N/N=C/c3ccco3)cc(C)c2c1,"inconclusive: 35.5 µM [inhibitor, single point]",–
CC(=O)c1ccc(NC(=O)/C(Cl)=C/c2ccccc2)cc1,"inconclusive: 28.2 µM [inhibitor, single point]",–
O=C(Nc1ccccc1N1CCCCC1)C1CCN(C(=O)c2ccc(Cl)cc2)CC1,"inconclusive: 15.8 µM [inhibitor, single point]",–
CC12CCC(=O)N1C(C(=O)Nc1cc(Cl)ccc1N1CCCC1)CS2 (centres undefined),"inconclusive: 0.1 µM [inhibitor, full curve, poor fit]",–
O=C1C2C3C=CC(C3)C2C(=O)N1CCCCCCN1C(=O)C2C3C=CC(C3)C2C1=O (centres undefined),inactive,–
O=C(c1ccccc1)N(CCO)Cc1cc2cc3c(cc2[nH]c1=O)OCCO3,"inconclusive: 12.6 µM [inhibitor, partial curve, poor fit]",–
Cc1ccc(-c2noc(CCC(=O)Nc3ccc4c(c3)OCO4)n2)cc1,"inconclusive: 35.5 µM [activator, single point]",–
Cc1cccc(Cl)c1OCCN1CCCC1,inactive,–
COc1ccc(C2(c3ccc(OC)cc3)NC(=O)N(CC(=O)NC3(C#N)CCCC3)C2=O)cc1,inactive,–
COc1ccc(CNC(=O)CCc2c(C)nc3c(c(C)nn3-c3ccccc3)c2C)cc1,"inconclusive: 6.31 µM [inhibitor, single point]",–

Compound,Potency,"activity change, negative = inhibition"
O=C(/C=C/c1cccc(F)c1)Nc1ccc(S(=O)(=O)N2CCOCC2)cc1,"inconclusive: 35.5 µM [inhibitor, single point]",–
OC(CNc1nc(-c2cccnc2)nc2ccccc12)c1ccccc1 (centres undefined),"inconclusive: 12.6 µM [inhibitor, partial curve, poor fit]",–
Cc1ccccc1OCC(=O)NCC(=O)N/N=C/c1ccc(Br)o1,"inconclusive: 0.0355 µM [inhibitor, partial curve, poor fit]",–
O=C(NC1CCCCC1)N1CCN(Cc2ccco2)CC1,inactive,–
Cc1nn(C)c(C)c1/C=C/C(=O)c1ccc(Cl)cc1Cl,"inconclusive: 3.16 µM [inhibitor, full curve]",–
Cc1nn2c(nc1=O)SCC(c1ccccc1)=N2,inactive,–
O=C(CSC(=S)N1CCCC1)NCC(=O)Nc1ccccc1Br,inactive,–
COc1ccccc1C(=O)NC1(C(F)(F)F)C(=O)Nc2c1c(=O)[nH]c(=O)n2-c1ccc(F)cc1 (centres undefined),inactive,–
COc1ccc(Br)cc1CN1CCCCCC1,"inconclusive: 28.2 µM [inhibitor, partial curve, poor fit]",–
CN(C(=O)COC(=O)c1n[nH]c2ccccc12)c1ccccc1,"inconclusive: 20 µM [activator, partial curve, poor fit]",–
CCCCn1c(N)c(N(CCC(C)C)C(=O)c2[nH]c(C)c(C(=O)OCC)c2C)c(=O)[nH]c1=O,inactive,–
CCOc1ncccc1C(=O)N1CCN(C(c2ccccc2)c2ccccc2)CC1,"inconclusive: 2.82 µM [inhibitor, partial curve, poor fit]",–
CC12C(=O)N(Cc3ccco3)C(=O)C1C1c3ccccc3C2c2ccccc21 (centres undefined),"inconclusive: 22.4 µM [inhibitor, single point]",–
COc1ccc(NC(=O)CSc2ccc(-c3ccco3)nn2)cc1,"inconclusive: 28.2 µM [activator, single point]",–
Oc1ccccc1/C=N/NC1=NCCCCC1,inactive,–
COc1ccc(OC)c(C2CC(=O)Oc3c2c(=O)n(C)c2ccccc32)c1 (centres undefined),inactive,–
O=C(CN(Cc1ccccc1)S(=O)(=O)c1ccc(F)cc1)NCCC1=CCCCC1,"inconclusive: 29.1 µM [inhibitor, single point]",–
Cc1cccc(N(CC(=O)Nc2ccccc2C(F)(F)F)S(=O)(=O)c2ccccc2)c1C,"inconclusive: 28.2 µM [inhibitor, single point]",–
COc1ccc(CNC(=S)NC2CCCC2)cc1,inactive,–
Cn1ccnc1SCC(=O)c1ccc2ccccc2c1,"inconclusive: 0.562 µM [activator, full curve, poor fit]",–
COc1cc(N2CCOCC2)ccc1/C=C1\C(=O)NC(=O)N(C2CCCCC2)C1=O,inactive,–
Cc1ccccc1OCCC(=O)N1CCN(S(=O)(=O)c2ccc(F)cc2)CC1,inactive,–
Cc1nc(NC(=O)c2ccccc2)sc1-c1csc(Nc2ccc(C(=O)O)cc2)n1,"inconclusive: 20.6 µM [inhibitor, partial curve]",–
